Several values for one entry are separate records, joined by “and”; a condition that tells them apart may be missing. Identical values can stand only once. The campaign covered roughly 300,000 compounds. About 5,400 (1.8%) were called active. Inconclusive means that the source gave no clear call. Such entries were picked first, then a sample of the others. The call rests on the fitted dose curve; tested in HEK293 cells. A potency beside an inconclusive call is a rough fit, not a confirmed value. Where a structure was tested more than once in an assay, its records may differ in their call.
Assay: qHTS for inhibitors of binding or entry into cells for Marburg Virus
Conditions: Marburg virus pseudotyped entry inhibition, cell reporter; series mostly up to 37.8 µM
Potency means the concentration at half of the fitted maximal effect.

With Clc1ccc(CCNC(c2nnc(-c3ccccc3)o2)c2ccccc2Cl)cc1 (configuration not stated) as the molecule, how does the Potency read?
The Potency was “inactive”.

Which Potency does the source give for O=C(Oc1ccccc1)Oc1ccc2c(c1)oc(=O)c1ccccc12 here?
The Potency was inconclusive: 7.08 µM [activator, partial curve, poor fit].

Which Potency does the source give for Cc1ccc2[nH]c(=O)c(CN(Cc3cccs3)Cc3nnnn3Cc3ccccc3)cc2c1 here?
Its Potency is inconclusive: 11.6 µM [inhibitor, partial curve, poor fit].

Which Potency does the source give for COc1ccc(/C=N/NC(=O)Nc2nonc2N)cc1 here?
The Potency was “inactive”.

With CCOc1ccc(C(=O)Nc2cc(S(=O)(=O)Nc3ccccc3Cl)ccc2N2CCOCC2)cc1 as the molecule, how does the Potency read?
The Potency was inconclusive: 0.112 µM [activator, full curve, poor fit].

Which Potency does the source give for Cc1ccc2cc(CN(Cc3ccc(F)cc3)Cc3nnnn3C3CCCC3)c(=O)[nH]c2c1 here?
Its Potency is “inactive and active: 14.6 µM”.

With Cc1ccc(N=C2C(=O)Nc3ccc(Br)cc32)cc1 as the molecule, how does the Potency read?
Its Potency is inconclusive: 35.5 µM [inhibitor, single point].

With CCc1nn(C(C)C(=O)NCCc2ccc(OC)c(OC)c2)c(=O)c2cc3occc3n12 (configuration not stated) as the molecule, how does the Potency read?
Its Potency is inconclusive: 0.562 µM [inhibitor, single point].

With S=C(N/N=C/c1ccccc1Cl)Nc1ccccc1 as the molecule, how does the Potency read?
Its Potency is “inactive”.

With O=C(NCc1ccco1)c1cccc(NC(=O)c2ccccc2)c1 as the molecule, how does the Potency read?
The Potency was inconclusive: 2.91 µM [inhibitor, full curve, poor fit].

For O=C(CC1SC(=Nc2ccc(OC(F)F)cc2)N(CCN2CCOCC2)C1=O)Nc1ccc(F)cc1F (configuration not stated), which Potency is on record?
The Potency was inconclusive: 35.5 µM [inhibitor, partial curve, poor fit].

For COc1ccc2[nH]c(=O)c(CN(CC3CCCO3)C(=O)Nc3ccccc3OC)cc2c1 (configuration not stated), which Potency is on record?
The Potency was inconclusive: 8.91 µM [inhibitor, partial curve].

For COc1ccc(NC(=O)c2noc3c2CCC3)cc1, which Potency is on record?
The Potency was inconclusive: 23.1 µM [inhibitor, partial curve, poor fit].

For Cc1cnn(Cc2ccccc2)c1N, which Potency is on record?
Its Potency is inconclusive: 1.83 µM [inhibitor, partial curve, poor fit].

With CC(c1ccccc1)n1cc(C(=O)NCc2ccncc2)nn1 (configuration not stated) as the molecule, how does the Potency read?
The Potency was “inactive”.

For COc1cccc(OC)c1OCCCCCc1c(C)n[nH]c1C, which Potency is on record?
The Potency was inconclusive: 8.91 µM [inhibitor, partial curve].

Which Potency does the source give for COCCn1c(SCC(=O)Nc2ccccc2C(F)(F)F)nc2ccccc2c1=O here?
The Potency was inconclusive: 22.4 µM [inhibitor, single point].

With COc1cc2c(cc1OC)C(C)N(S(=O)(=O)c1cn(C)c(C)n1)CC2 (configuration not stated) as the molecule, how does the Potency read?
The Potency was inconclusive: 35.5 µM [activator, single point].

With c1cc2c(cc1CCNC1C3CC4CC(C3)CC1C4)OCO2 (configuration not stated) as the molecule, how does the Potency read?
The Potency was inconclusive: 16.4 µM [inhibitor, partial curve, poor fit].

With Cc1c(C)c(C)c(C(=O)C2CCN(c3ccc([N+](=O)[O-])cn3)CC2)c(C)c1C as the molecule, how does the Potency read?
Its Potency is “inactive”.

Which Potency does the source give for CN1/C(=C\C(=O)c2ccccc2Cl)c2ccccc2CC1(C)C here?
Its Potency is inconclusive: 23.1 µM [inhibitor, partial curve, poor fit].

Which Potency does the source give for O=C(NCCN1CCOCC1)c1c(Cl)cccc1Cl here?
Its Potency is inconclusive: 3.16 µM [activator, single point].

With CC1CCN(c2cc(N3CCOCC3)c([N+](=O)[O-])cc2F)CC1 as the molecule, how does the Potency read?
The Potency was “inactive”.

Which Potency does the source give for Cc1ccc(OCc2cc(C(=O)N3CCCC3)no2)cn1 here?
Its Potency is inconclusive: 6.31 µM [activator, single point].

With O=c1c2sc3ccccc3c2n(Cc2cccc(C(F)(F)F)c2)c(=O)n1Cc1ccco1 as the molecule, how does the Potency read?
Its Potency is “inactive”.

For CCc1ccc(N/C(N)=N/c2nc(CSc3ncccn3)cc(=O)[nH]2)cc1, which Potency is on record?
The Potency was inconclusive: 7.08 µM [inhibitor, partial curve].

For O=C(Cc1c(F)cccc1Cl)Nc1ccccn1, which Potency is on record?
Its Potency is “inactive”.

Which Potency does the source give for Cc1cc(NC(=O)Cn2c(=O)n(Cc3ccccc3)c(=O)c3ccccc32)no1 here?
Its Potency is “inactive”.

Which Potency does the source give for Cc1ccc(-c2cc(C(=O)N3CCN(c4ccccc4O)CC3)c3ccccc3n2)o1 here?
The Potency was inconclusive: 2 µM [inhibitor, partial curve, poor fit].

For O=C(O)c1ccccc1SCc1cn2cc(Br)ccc2n1, which Potency is on record?
Its Potency is “inactive”.

For COCc1cc(C)nc(N/N=C/c2ccc(Cl)c(Cl)c2)c1C#N, which Potency is on record?
Its Potency is “inactive”.

With CCOC(=O)N1CCN(C(=O)c2ccc(S(=O)(=O)Nc3cccc(C(F)(F)F)c3)cc2)CC1 as the molecule, how does the Potency read?
The Potency was inconclusive: 10 µM [inhibitor, partial curve, poor fit].

Which Potency does the source give for CC(C)COC(=O)/C(C#N)=C/c1cn(Cc2ccccc2)c2ccccc12 here?
The Potency was inconclusive: 1.78 µM [activator, partial curve].

With O=C(O)CCCNc1cc(N2CCC3(CC2)OCCO3)c2noc3c2c1C(=O)c1ccccc1-3 as the molecule, how does the Potency read?
The Potency was “inactive”.

With O=C1NC(=O)N(CCNc2ncc(C(F)(F)F)cc2Cl)C(=O)C1Cc1ccc(Cl)cc1 (configuration not stated) as the molecule, how does the Potency read?
The Potency was inconclusive: 7.94 µM [activator, partial curve, poor fit].

With CCN1CCN(C(=O)c2sc3nc(C)nc(N4CCC(C)CC4)c3c2C)CC1 as the molecule, how does the Potency read?
Its Potency is “inactive”.

With COc1ccc(CNC(=O)c2oc3ccc(S(=O)(=O)N4CCOCC4)cc3c2C)cc1 as the molecule, how does the Potency read?
The Potency was inconclusive: 10 µM [inhibitor, partial curve, poor fit].

With O=C1/C(=C\c2cccnc2)SC(=S)N1C1CCS(=O)(=O)C1 (configuration not stated) as the molecule, how does the Potency read?
The Potency was inconclusive: 14.6 µM [inhibitor, partial curve, poor fit].

Which Potency does the source give for CN=CC1=C(O)CC(C)(C)CC1=O here?
Its Potency is “inactive”.

With COc1cccc(C(=O)Oc2ccc(/C=N/Nc3ccc(C(=O)O)cc3)cc2OC)c1 as the molecule, how does the Potency read?
The Potency was inconclusive: 5.62 µM [activator, single point].

Which Potency does the source give for Cc1ccc(NC(=O)CSc2n[nH]c(-c3cccnc3)n2)c(Br)c1 here?
The Potency was inconclusive: 0.631 µM [inhibitor, full curve, poor fit].

Which Potency does the source give for COc1ccc(/C=C(\C#N)C(=O)OCC(=O)Nc2c(C)cccc2C)cc1 here?
Its Potency is inconclusive: 0.112 µM [inhibitor, full curve, poor fit].

For CCOC(=O)C1(C(=O)O)NC(=O)CC1c1ccccc1 (configuration not stated), which Potency is on record?
Its Potency is inconclusive: 0.411 µM [inhibitor, partial curve, poor fit].

With Cc1ccc(-n2ncc3c(=O)n(CC(=O)N4CCCc5ccccc54)cnc32)cc1C as the molecule, how does the Potency read?
The Potency was inconclusive: 35.5 µM [inhibitor, single point].

With c1ccc2oc(-c3[nH]ncc3CN3CCSCC3)cc2c1 as the molecule, how does the Potency read?
Its Potency is inconclusive: 10 µM [inhibitor, partial curve, poor fit].

For CC(=NCCc1c(C)[nH]c2ccc(OCc3ccccc3)cc12)C1=C(O)CC(c2ccccc2)CC1=O (configuration not stated), which Potency is on record?
The Potency was inconclusive: 35.5 µM [inhibitor, single point].

Which Potency does the source give for CC(C)CN(C)C(=O)CC1C(=O)NCCN1C (configuration not stated) here?
The Potency was “inactive”.

For Clc1cccc(Nc2ncnc3ccc(Br)cc23)c1, which Potency is on record?
The Potency was inconclusive: 25.9 µM [inhibitor, single point].

For CCOc1ccc(NC(=O)CN(C)C(=O)CC(NC(=O)c2ccccc2)c2ccccc2)cc1OCC (configuration not stated), which Potency is on record?
The Potency was “inactive”.

With CCOc1ncccc1C(=O)Nc1cc(S(=O)(=O)N2CCCCC2)ccc1OC as the molecule, how does the Potency read?
Its Potency is “inactive”.

With CC(C)[C@H]1COCCS(=O)(=O)N1Cc1ccccc1-c1cccc(Cl)c1 as the molecule, how does the Potency read?
The Potency was inconclusive: 15.8 µM [inhibitor, single point].

For Cc1nn(C)cc1S(=O)(=O)N1CCN(c2ccccc2F)CC1, which Potency is on record?
Its Potency is inconclusive: 0.112 µM [inhibitor, full curve, poor fit].

For Cc1cc(C)c(-c2csc(NC(=O)c3cc([N+](=O)[O-])ccc3N3CCOCC3)n2)c(C)c1, which Potency is on record?
The Potency was inconclusive: 11.6 µM [inhibitor, partial curve, poor fit].

With COc1ccc2oc(=O)c(C(=O)NCCc3c(C)[nH]c4ccc(Br)cc34)cc2c1 as the molecule, how does the Potency read?
The Potency was “inactive”.

With Cc1cc(C(=O)c2ccc(C(C)(C)C)cc2)c(NC(=O)CCl)s1 as the molecule, how does the Potency read?
Its Potency is inconclusive: 35.5 µM [inhibitor, partial curve, poor fit].

Which Potency does the source give for Cc1cc(C)c(S(=O)(=O)c2ccccc2)c(OC(=O)c2c(Cl)cc(Cl)cc2Cl)n1 here?
The Potency was inconclusive: 17.8 µM [inhibitor, single point].

With COc1cccc(CN2CCN(C(c3ccccc3)c3ccccc3)CC2)c1O as the molecule, how does the Potency read?
The Potency was inconclusive: 35.5 µM [inhibitor, single point].

Which Potency does the source give for CCOc1ccc(/C(O)=C2\C(=O)C(=O)N(c3ccc(OC)cc3)C2c2ccccc2[N+](=O)[O-])cc1 (configuration not stated) here?
The Potency was inconclusive: 14.1 µM [inhibitor, single point].

Which Potency does the source give for COc1ccc(OC)c(N)c1 here?
The Potency was “inactive”.

With COc1ccccc1N1CCN(C(=O)CCS(=O)(=O)c2cc(Br)cc3c2N(C(=O)C2CC2)CC3)CC1 as the molecule, how does the Potency read?
The Potency was inconclusive: 0.708 µM [inhibitor, partial curve, poor fit].

With COc1cccc(C2C(C(=O)Nc3ccccc3OC)=C(C)Nc3nc4ccccc4n32)c1 (configuration not stated) as the molecule, how does the Potency read?
Its Potency is “inactive”.

Which Potency does the source give for Oc1ccc(/C=N/N2CCCCC2)c(O)c1O here?
Its Potency is “inactive”.

Which Potency does the source give for CCS(=O)(=O)c1ccc2oc(SCC(=O)N3c4ccccc4CC3C)nc2c1 (configuration not stated) here?
Its Potency is inconclusive: 18.3 µM [inhibitor, single point].

With CCOc1ccc(-c2nnc3n2N=C(c2ccc(OC)cc2)CS3)cc1 as the molecule, how does the Potency read?
Its Potency is “inactive”.

With COc1ccc(-c2cnnc(N/N=C/c3ccc(O)cc3)n2)cc1 as the molecule, how does the Potency read?
The Potency was inconclusive: 20 µM [inhibitor, single point].

With CCOC(=O)Nc1ccc2c(COC(=O)CNS(=O)(=O)c3ccc(NC(C)=O)cc3)cc(=O)oc2c1 as the molecule, how does the Potency read?
The Potency was inconclusive: 10 µM [inhibitor, partial curve, poor fit].

For O=[N+]([O-])c1ccccc1CSc1nc2ccccc2o1, which Potency is on record?
Its Potency is inconclusive: 3.26 µM [activator, partial curve, poor fit].

— PubChem BioAssay AID540276 (National Center for Advancing Translational Sciences (NCATS), 2011)
